Reference: PubChem BioAssay AID504465 (National Center for Advancing Translational Sciences (NCATS), 2011)
The whole screen tested about 2,100 compounds, of which about 210 (10%) were called active. The shares of active, inactive and inconclusive entries below differ from those in the screen. The call rests on the fitted dose curve; in most records, active means well fitted inhibition curve with a large enough effect; inconclusive means small, poorly fitted or top-dose-only effect, or effect the other way; inactive means no such curve, though single readings can be large or run the other way. Potencies beside an inconclusive call are fits to weak or partial responses and may not hold up.

Assay: IN Cell qHTS Assay for Inhibitors of the mTORC1 Signaling Pathway in MEF (Tsc2-/-, p53-/-) Cells: Sytravon; further: nearly all actives have a fitted effect of over 60% in size
Details: phospho-rpS6 immunofluorescence, 24 h; activity, negative = inhibition: at 38.3 µM (top of the series)
Outline: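 Immunofluorescence of rpS6 phosphorylation (Ser235/236) in mouse embryonic fibroblasts lacking Tsc2 and p53, after 24 h compound exposure; Hoechst-normalized signal imaged, each well scored as % active cells relative to rapamycin (7.5 nM) and DMSO controls.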
Potency means the concentration at half of the fitted maximal effect.

With O=C(Cn1cc(SCc2ccc(F)cc2)c2ccccc21)N1CCCCCC1 as the compound, how does the “activity, negative = inhibition” value read?
The value was inactive: -24.4%.

Which Potency does the source give for CCCCOc1ccccc1NC(=O)CC1Sc2ccccc2NC1=O (stereo not given) here?
The Potency was inconclusive: 20.7 µM [falling, single point].

With COc1ccccc1Cc1nc2ccccc2nc1SCC(=O)N1CCCCC1 as the compound, how does the “activity, negative = inhibition” value read?
Its value is inactive: -12.5%.

For O=C(CCCCn1c(=O)[nH]c2ccsc2c1=O)N1CCN(c2cccc(C(F)(F)F)c2)CC1, which Potency is on record?
The Potency was inconclusive: 0.736 µM [falling, partial curve, poor fit].

With Cc1ccn2c(NC(=O)c3cccc(Cl)c3)c(-c3ccccc3)nc2c1 as the compound, how does the Potency read?
The Potency was inconclusive: 23.3 µM [falling, single point].

For CCc1ccc(CNc2ncc(-c3cccc(OC)c3)n2C)cc1, which Potency is on record?
Its Potency is inconclusive: 26.1 µM [falling, single point].

With Cc1cccc(C)c1NC(=O)Cn1c(=O)n(Cc2ccc(C(=O)NCc3ccco3)cc2)c(=O)c2sccc21 as the compound, how does the Potency read?
Its Potency is inconclusive: 14.7 µM [falling, single point].

With Cc1c(Cl)cccc1NC(=O)c1ccc2c(c1)nnn2C1CCCC1 as the compound, how does the “activity, negative = inhibition” value read?
Its value is inactive: -0.577%.

For O=C(Nc1ccccc1OCc1cc(=O)n2ccccc2n1)c1cccc(Br)c1, which Potency is on record?
The Potency was inconclusive: 23.3 µM [falling, single point].

For Cc1ccc(CCNC(=O)CCCn2c(=O)c3ccccc3n(CC(=O)Nc3cc(Cl)ccc3C)c2=O)cc1, which Potency is on record?
Its Potency is inconclusive: 3.69 µM [falling, full curve, poor fit].

With COCCn1c(C)cc(O)c(C(c2ccccc2)N2CCN(CCO)CC2)c1=O (stereo not given) as the compound, how does the Potency read?
Its Potency is inconclusive: 14.7 µM [falling, single point].

With COc1ccc(NC(=O)c2coc(=O)c3ccccc23)cc1OC as the compound, how does the Potency read?
The Potency was inconclusive: 3.69 µM [falling, single point].

For Cc1ccc(-c2noc(-c3ccccc3NC(=O)C3CC(=O)N(c4cccc(C)c4)C3)n2)cc1 (stereo not given), which “activity, negative = inhibition” value is on record?
Its value is inactive: 3.66%.

With CC1CCN(c2ccc(-c3nc(-c4ccccc4)no3)cc2[N+](=O)[O-])CC1 as the compound, how does the Potency read?
Its Potency is inconclusive: 3.29 µM [falling, full curve, poor fit].

With CCOC(=O)c1c(NC(=O)c2ccc(S(=O)(=O)N3CCC(C)CC3)cc2)sc2c1CCN(C(C)C)C2 as the compound, how does the “activity, negative = inhibition” value read?
The value was inactive: 6.25%.

With CCc1ccc(NC(=O)CSc2nc3n[nH]c(C)c3c(=N)n2-c2ccc(C)cc2)cc1 as the compound, how does the “activity, negative = inhibition” value read?
Its value is inactive: 0%.

For CCOC(=O)c1c(Nc2cccc(C(=O)OC)c2)nnc(-c2ccccc2)c1-c1ccccc1, which Potency is on record?
Its Potency is inconclusive: 18.5 µM [falling, single point].

With COc1ccc(C(=O)Nc2cccc(-c3cn4ccsc4n3)c2)cc1OC as the compound, how does the “activity, negative = inhibition” value read?
Its value is inactive: -19.6%.

For Cc1ccc(-c2nc3ccccc3[nH]2)cc1NC(=O)COc1ccccc1[N+](=O)[O-], which Potency is on record?
The Potency was inconclusive: 0.464 µM [falling, full curve, poor fit].

With CC(C)c1ccc(C2Sc3ccccc3NC3=C2C(=O)c2ccccc23)cc1 (stereo not given) as the compound, how does the Potency read?
The Potency was inconclusive: 14.7 µM [falling, single point].

Which “activity, negative = inhibition” value does the source give for O=C(Nc1cc(Cl)ccc1Cl)c1cc(S(=O)(=O)NCCc2ccccc2)ccc1F here?
Its value is inactive: 6.25%.

For Cc1ccc2cccc(NC(=O)c3cccc4ccccc34)c2n1, which Potency is on record?
Its Potency is inconclusive: 14.7 µM [falling, single point].

With CCc1ccc(OCC(=O)Nc2ccc3c(c2)c2ccccc2n3CC)cc1 as the compound, how does the Potency read?
Its Potency is inconclusive: 13.1 µM [falling, single point].

With Oc1ccccc1-c1nc(-c2cccs2)c(-c2cccs2)[nH]1 as the compound, how does the “activity, negative = inhibition” value read?
The value was inactive: -1.5%.

With Cc1ccc(CN2C(=O)C(O)(c3c(C)[nH]c4ccccc34)c3ccccc32)cc1 (stereo not given) as the compound, how does the “activity, negative = inhibition” value read?
Its value is inactive: -20.6%.

Which “activity, negative = inhibition” value does the source give for CCOc1ccc(CCNC(=O)c2cc3c(-c4ccccc4F)nn(C)c3s2)cc1 here?
The value was inactive: 19.4%.

Which Potency does the source give for O=C(NCc1ccccc1)C(=O)Nc1c2c(nn1-c1ccc(F)cc1)CSC2 here?
The Potency was inconclusive: 5.85 µM [falling, single point].

With Cc1ccc(CNC(=O)Cn2c(SCC(=O)Nc3ccc(F)cc3)nc3ccccc32)cc1 as the compound, how does the Potency read?
Its Potency is active: 5.21 µM.

With CCS(=O)(=O)c1ncc(Cl)c(C(=O)N2CCN(c3ccc(OC)cc3)CC2)n1 as the compound, how does the Potency read?
The Potency was active: 4.65 µM.

For CCCCOC(=O)c1ccc(NC(=O)c2sc3nc(C)cc(C)c3c2N)cc1, which Potency is on record?
Its Potency is inconclusive: 9.27 µM [falling, partial curve, poor fit].

With COc1ccc(NC2=C(c3ccc(C(F)(F)F)cc3)C(=O)c3ccccc32)cc1 as the compound, how does the “activity, negative = inhibition” value read?
The value was inactive: 16.1%.

With COc1cc(NC(=O)CSc2c3c(nc4ccccc24)CCC3)cc(OC)c1OC as the compound, how does the Potency read?
The Potency was inconclusive: 0.147 µM [activator, full curve].

For COc1ccccc1CN1CCC(CNC(=O)c2cnn(-c3ccccc3Cl)c2C2CCN(C(=O)OC(C)(C)C)CC2)CC1, which “activity, negative = inhibition” value is on record?
Its value is inactive: -15.8%.

For CCN1CCN(Cc2c(O)ccc3oc(C)c(C(=O)Nc4cccc(C(F)(F)F)c4)c23)CC1, which Potency is on record?
The Potency was inconclusive: 26.1 µM [falling, single point].

Which Potency does the source give for Cc1cc(C)c(S(=O)(=O)Nc2ccc3oc4c(c3c2)CCCC4)cc1C here?
Its Potency is inconclusive: 26.1 µM [falling, single point].

For Clc1cccc(-n2ncc3c(NC4CCCCC4)ncnc32)c1, which “activity, negative = inhibition” value is on record?
The value was inactive: 6.25%.

For O=C(Nc1ccccc1F)c1nc(S(=O)(=O)Cc2ccccc2F)ncc1Cl, which Potency is on record?
Its Potency is active: 2.33 µM.

For CC(C)(C)OC(=O)N1CCC(c2c(C(=O)NCCN3CCC(Cc4ccccc4)CC3)cnn2-c2cccc(Cl)c2)CC1, which Potency is on record?
Its Potency is inconclusive: 23.3 µM [falling, single point].

For CCCNC(=O)c1ccc2c(c1)N=C(C)c1c(C)ccc(C)c1S2, which Potency is on record?
The Potency was inconclusive: 0.414 µM [falling, full curve, poor fit].

Which Potency does the source give for CCOC(=O)c1[nH]c2ccccc2c1NC(=O)c1ccccc1OCC here?
Its Potency is inconclusive: 26.1 µM [falling, single point].

Which “activity, negative = inhibition” value does the source give for CCc1ccc(NC(=O)c2cc(S(=O)(=O)NC3CCCC3)ccc2F)cc1 here?
The value was inactive: 6.25%.

Which “activity, negative = inhibition” value does the source give for Oc1c(C(Nc2ccccn2)c2ccccc2F)ccc2cccnc12 (stereo not given) here?
Its value is inactive: -19.3%.

Which Potency does the source give for Cc1nn(CCCC(=O)NCCc2ccc(Cl)cc2)c(=O)c2c1sc1ccccc12 here?
The Potency was active: 11.7 µM.

For COc1ccc(NC(=O)CCS(=O)(=O)c2nc(-c3cccs3)cc(C(F)(F)F)n2)cc1OC, which Potency is on record?
The Potency was active: 16.5 µM.

With COc1cccc(C2CC(=O)Nc3cc4c(cc32)OCCO4)c1OC (stereo not given) as the compound, how does the “activity, negative = inhibition” value read?
The value was inactive: -21.4%.

For Cc1ccc(-n2ncc(C(=O)NCCCN3CCc4ccccc4C3)c2C2CCN(C(=O)OC(C)(C)C)CC2)cc1C, which Potency is on record?
Its Potency is active: 20.7 µM.

For COc1ccc(NC(=O)c2ccco2)cc1NC(=O)COc1ccccc1Cl, which Potency is on record?
The Potency was inconclusive: 13.1 µM [falling, single point].

With CCOC(=O)c1c(C)[nH]c(CCC(=O)Nc2cc(C)cc(C)c2)c1C as the compound, how does the “activity, negative = inhibition” value read?
The value was inactive: -3.85%.

With CN(C)CCNC(=O)c1ccc2c(c1)N(Cc1c(F)cccc1Cl)C(=O)c1ccccc1S2 as the compound, how does the Potency read?
Its Potency is inconclusive: 7.36 µM [falling, partial curve, poor fit].

For CCN1CCN(c2cc(C)c3cc(NC(=O)c4ccc(OC)c(OC)c4)ccc3n2)CC1, which Potency is on record?
The Potency was inconclusive: 0.0037 µM [falling, full curve, poor fit].

Which Potency does the source give for COc1ccc(C)cc1Nc1nc(N)c2cc(OC)c(OC)cc2n1 here?
The Potency was inconclusive: 13.1 µM [falling, single point].

With Cc1nn(C)c2c1c(C(F)(F)F)cc(=O)n2CC(=O)N1CCC(C)CC1 as the compound, how does the “activity, negative = inhibition” value read?
The value was inactive: -0.547%.

With O=C(NCc1ccc(Cl)cc1Cl)c1cccc(N2CCCS2(=O)=O)c1 as the compound, how does the “activity, negative = inhibition” value read?
The value was inactive: 19%.

For COc1cc(NC(=O)c2cccc(F)c2)ccc1NC(=O)c1cc2ccccc2o1, which Potency is on record?
The Potency was active: 16.5 µM.

With COc1ccc(N2CCN(CCCNC(=O)c3cc(Nc4ccccc4OC)nc4ccccc34)CC2)cc1 as the compound, how does the “activity, negative = inhibition” value read?
The value was inactive: 0%.

With Cc1ccc(Nc2nc(Nc3ccc(C)c(C)c3)nc(N3CCOCC3)n2)cc1C as the compound, how does the Potency read?
Its Potency is active: 0.656 µM.

With COc1ccc(/C=C/C(=O)Nc2ccc3nc(N4CCC(C)CC4)cc(C)c3c2)cc1OC as the compound, how does the Potency read?
Its Potency is inconclusive: 10.4 µM [falling, partial curve, poor fit].

With Cc1ccc(C(CC(=O)NCC2(c3ccccc3)CCCC2)c2ccccc2)c(O)c1 (stereo not given) as the compound, how does the Potency read?
Its Potency is inconclusive: 18.5 µM [falling, single point].

With COc1ccc(C2C(=O)N(C3CCCCCC3)CC(=O)N2CCc2ccccc2)cc1 (stereo not given) as the compound, how does the “activity, negative = inhibition” value read?
Its value is inactive: 6.25%.

With COc1ccccc1N1CCN(C(=O)c2nc(-c3ccc(C)cc3)n3c2CCCCC3)CC1 as the compound, how does the Potency read?
The Potency was inconclusive: 14.7 µM [falling, single point].

For Cc1ccc(NC(=O)c2c(C)oc3ccc(O)c(CN4CCCCC4)c23)cc1, which Potency is on record?
The Potency was inconclusive: 11.7 µM [falling, partial curve].

With CCCOCc1cc(CN2CCN(c3cccc(Cl)c3)CC2)c(O)c2ncccc12 as the compound, how does the Potency read?
The Potency was inconclusive: 0.585 µM [falling, full curve, poor fit].

With CCCN(Cc1cccs1)C(=O)Nc1ccccc1C as the compound, how does the “activity, negative = inhibition” value read?
The value was inactive: -11.5%.

For COc1ccc(Nc2nnc(-c3ccc(C)c(S(=O)(=O)N4CCN(C)CC4)c3)c3ccccc23)cc1, which Potency is on record?
Its Potency is active: 16.5 µM.

With COc1ccc(/C=C/c2nc(C#N)c(NC3CCCCC3)o2)cc1OC as the compound, how does the “activity, negative = inhibition” value read?
The value was inactive: -11.3%.

For COc1ccccc1CNC(=O)Cn1c(-c2cccs2)cc2cc(F)ccc21, which Potency is on record?
Its Potency is inconclusive: 14.7 µM [falling, single point].

With CCOc1ccc(-n2nc3cc(C)c(NC(=O)CC)cc3n2)cc1 as the compound, how does the Potency read?
The Potency was inconclusive: 8.26 µM [falling, partial curve].

For Cc1ccc(-c2nc(S(=O)(=O)c3ccc(C)cc3)c(N3CCN(c4ccccc4)CC3)o2)cc1, which “activity, negative = inhibition” value is on record?
The value was inactive: 1.43%.

Which Potency does the source give for Cc1ccc(C)c(S(=O)(=O)NCC(c2ccco2)S(=O)(=O)c2ccc(F)cc2)c1 (stereo not given) here?
Its Potency is inconclusive: 23.3 µM [falling, single point].

Which Potency does the source give for CCc1ccc(NC(=O)C(=O)NCC(c2cccnc2)N2CCN(C)CC2)cc1 (stereo not given) here?
The Potency was inconclusive: 23.3 µM [falling, single point].
